Experimental data reported in patent US12540150B1, “Fluorogenic probe using a Mislow-Evans rearrangement for real-time imaging of hydrogen peroxide” (University of Pittsburgh—Of the Commonwealth System of …, priority 2020, dated 2026).

Conditions: 5% MeCN in 50 mM pH 7.5 HEPES buffer

O=c1ccc2c(-c3ccccc3CO)c3ccc(O)cc3oc-2c1 [Compound 5]
Calibration curve 1/slope: 2.54E−06
Calibration curve slope (best-fit) (200 μL, n=2): 393445 ± 2396
